This note sets out measurements from article PMC6501127.

Amino acid sequences for entries named in this document (tags omitted).
UniProt Q13619: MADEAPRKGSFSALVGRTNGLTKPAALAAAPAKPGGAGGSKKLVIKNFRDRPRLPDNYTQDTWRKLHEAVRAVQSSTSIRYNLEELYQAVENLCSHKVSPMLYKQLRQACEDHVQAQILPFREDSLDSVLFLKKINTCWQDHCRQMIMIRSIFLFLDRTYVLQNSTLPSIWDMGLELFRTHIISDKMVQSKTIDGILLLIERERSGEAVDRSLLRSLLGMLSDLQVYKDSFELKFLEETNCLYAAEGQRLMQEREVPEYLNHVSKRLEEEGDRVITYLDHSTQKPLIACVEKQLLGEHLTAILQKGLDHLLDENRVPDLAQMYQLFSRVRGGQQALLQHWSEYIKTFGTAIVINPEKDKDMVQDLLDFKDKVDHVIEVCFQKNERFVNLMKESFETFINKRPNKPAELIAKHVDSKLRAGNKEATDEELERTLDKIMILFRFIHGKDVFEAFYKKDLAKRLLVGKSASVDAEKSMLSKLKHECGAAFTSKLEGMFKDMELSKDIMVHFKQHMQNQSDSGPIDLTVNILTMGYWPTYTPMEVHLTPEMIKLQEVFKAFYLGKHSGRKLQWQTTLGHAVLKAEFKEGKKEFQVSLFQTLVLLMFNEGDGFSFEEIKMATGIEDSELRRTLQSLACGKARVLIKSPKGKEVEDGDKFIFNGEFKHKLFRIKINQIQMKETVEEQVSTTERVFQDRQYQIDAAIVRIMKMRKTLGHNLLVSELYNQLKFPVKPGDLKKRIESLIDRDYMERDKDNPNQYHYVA
UniProt P27008: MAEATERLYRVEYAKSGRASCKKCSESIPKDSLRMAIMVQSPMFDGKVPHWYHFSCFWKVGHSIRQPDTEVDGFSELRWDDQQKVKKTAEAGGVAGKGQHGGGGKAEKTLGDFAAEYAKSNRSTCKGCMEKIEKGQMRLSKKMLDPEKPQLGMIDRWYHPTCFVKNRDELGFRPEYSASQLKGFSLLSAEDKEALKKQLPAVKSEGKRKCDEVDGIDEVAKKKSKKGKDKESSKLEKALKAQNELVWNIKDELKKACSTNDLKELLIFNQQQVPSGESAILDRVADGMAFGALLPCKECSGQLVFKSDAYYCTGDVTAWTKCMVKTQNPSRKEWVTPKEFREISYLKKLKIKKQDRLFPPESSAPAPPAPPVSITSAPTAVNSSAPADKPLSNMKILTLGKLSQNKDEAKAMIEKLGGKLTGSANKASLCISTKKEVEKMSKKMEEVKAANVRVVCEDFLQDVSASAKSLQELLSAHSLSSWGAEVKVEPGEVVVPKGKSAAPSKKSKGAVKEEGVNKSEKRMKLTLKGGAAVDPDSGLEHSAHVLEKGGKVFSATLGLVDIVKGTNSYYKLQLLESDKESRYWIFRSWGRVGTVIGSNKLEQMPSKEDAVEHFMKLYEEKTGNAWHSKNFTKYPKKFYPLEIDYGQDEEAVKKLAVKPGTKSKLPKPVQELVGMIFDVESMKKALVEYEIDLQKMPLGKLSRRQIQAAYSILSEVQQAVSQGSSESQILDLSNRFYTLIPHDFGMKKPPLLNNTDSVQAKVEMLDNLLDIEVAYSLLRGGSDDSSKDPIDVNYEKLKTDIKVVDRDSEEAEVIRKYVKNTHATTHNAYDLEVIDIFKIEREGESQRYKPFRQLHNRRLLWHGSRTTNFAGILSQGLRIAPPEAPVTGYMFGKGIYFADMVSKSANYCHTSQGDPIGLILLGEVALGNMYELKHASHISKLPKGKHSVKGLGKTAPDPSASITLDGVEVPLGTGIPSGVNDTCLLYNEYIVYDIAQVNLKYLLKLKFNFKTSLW

This assay concerns the target Flag-Cul4a (UniProt Q13619). Description: co-IP; lysate of H9c2 cells transfected with Flag-Cul4a (flag lysis buffer); anti-Flag antibody with Protein A/G magnetic beads overnight, anti-PARP1 western blot; cells untreated or treated with 200 μM H2O2 for 2 h. Background: A western blot detects proteins with antibodies after separation by electrophoresis.

These are yes or no findings as the source states them, for the method shown. Binding seen in cells or lysates may run through a third protein. Some results given as binding are weak or reduced against the parent protein; the word gives no strength.

For “poly (ADP-ribose) polymerase-1 (from UniProt P27008 1-1014)”, the binding entry is reported as “binds”.
